From article PMC9157009, “Protein proximity networks and functional evaluation of the casein kinase 1 gamma family reveal unique roles for CK1γ3 in WNT signaling” (The Journal of Biological Chemistry, 2022)

Amino acid sequences for entries named in this document (tags omitted).
UniProt Q9HCP0: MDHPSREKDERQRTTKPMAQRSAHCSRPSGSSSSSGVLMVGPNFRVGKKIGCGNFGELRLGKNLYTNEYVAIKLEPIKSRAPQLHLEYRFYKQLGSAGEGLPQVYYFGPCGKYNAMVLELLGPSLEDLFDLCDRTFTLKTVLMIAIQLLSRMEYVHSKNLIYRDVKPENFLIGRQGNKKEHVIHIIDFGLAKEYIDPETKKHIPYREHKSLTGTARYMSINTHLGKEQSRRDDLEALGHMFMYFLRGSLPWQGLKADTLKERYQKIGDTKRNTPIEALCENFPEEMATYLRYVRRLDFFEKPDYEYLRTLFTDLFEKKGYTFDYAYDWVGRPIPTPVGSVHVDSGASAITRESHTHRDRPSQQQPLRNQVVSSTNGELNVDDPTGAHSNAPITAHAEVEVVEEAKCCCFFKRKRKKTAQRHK
UniProt P78368: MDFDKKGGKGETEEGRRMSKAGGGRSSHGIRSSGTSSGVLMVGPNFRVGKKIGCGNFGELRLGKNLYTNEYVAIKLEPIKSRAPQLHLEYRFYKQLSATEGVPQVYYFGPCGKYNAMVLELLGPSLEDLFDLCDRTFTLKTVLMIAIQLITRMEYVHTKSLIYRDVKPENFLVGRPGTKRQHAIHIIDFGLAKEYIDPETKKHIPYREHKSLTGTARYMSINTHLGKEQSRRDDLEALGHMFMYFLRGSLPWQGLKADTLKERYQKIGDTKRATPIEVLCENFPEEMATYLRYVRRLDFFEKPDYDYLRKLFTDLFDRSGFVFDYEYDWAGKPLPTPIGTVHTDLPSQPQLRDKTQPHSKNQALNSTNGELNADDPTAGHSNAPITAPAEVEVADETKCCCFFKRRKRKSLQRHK
UniProt Q9Y6M4: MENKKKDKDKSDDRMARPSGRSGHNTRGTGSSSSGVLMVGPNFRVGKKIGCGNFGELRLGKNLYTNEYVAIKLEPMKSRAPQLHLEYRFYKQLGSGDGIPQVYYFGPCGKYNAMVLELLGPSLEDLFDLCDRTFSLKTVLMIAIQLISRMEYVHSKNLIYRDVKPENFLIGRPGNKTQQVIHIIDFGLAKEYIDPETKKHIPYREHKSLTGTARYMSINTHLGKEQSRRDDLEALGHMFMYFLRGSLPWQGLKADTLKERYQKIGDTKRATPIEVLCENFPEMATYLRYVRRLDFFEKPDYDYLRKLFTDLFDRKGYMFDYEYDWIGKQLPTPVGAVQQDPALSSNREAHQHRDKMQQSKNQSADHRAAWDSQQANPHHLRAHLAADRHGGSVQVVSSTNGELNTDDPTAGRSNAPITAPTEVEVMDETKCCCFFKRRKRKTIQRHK
UniProt Q9ULC8: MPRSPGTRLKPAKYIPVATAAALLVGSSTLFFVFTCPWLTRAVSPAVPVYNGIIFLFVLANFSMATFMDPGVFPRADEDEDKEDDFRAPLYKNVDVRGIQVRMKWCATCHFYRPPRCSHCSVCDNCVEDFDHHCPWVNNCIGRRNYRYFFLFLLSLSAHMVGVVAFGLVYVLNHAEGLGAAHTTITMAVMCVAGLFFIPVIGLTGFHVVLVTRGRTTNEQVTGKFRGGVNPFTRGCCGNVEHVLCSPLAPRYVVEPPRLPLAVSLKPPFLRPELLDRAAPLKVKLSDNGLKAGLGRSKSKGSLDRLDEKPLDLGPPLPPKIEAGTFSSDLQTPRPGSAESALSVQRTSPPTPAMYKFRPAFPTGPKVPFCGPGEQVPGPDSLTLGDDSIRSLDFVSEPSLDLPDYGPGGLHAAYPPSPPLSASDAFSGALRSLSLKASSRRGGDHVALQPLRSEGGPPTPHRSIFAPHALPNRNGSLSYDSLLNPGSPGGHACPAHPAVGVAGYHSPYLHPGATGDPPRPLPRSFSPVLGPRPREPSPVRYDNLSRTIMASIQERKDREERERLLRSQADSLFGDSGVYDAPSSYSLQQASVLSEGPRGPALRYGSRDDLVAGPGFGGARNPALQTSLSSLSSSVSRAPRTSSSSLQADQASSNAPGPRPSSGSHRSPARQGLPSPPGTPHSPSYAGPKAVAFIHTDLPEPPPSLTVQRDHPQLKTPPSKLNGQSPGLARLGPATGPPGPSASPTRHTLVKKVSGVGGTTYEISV
UniProt P35222: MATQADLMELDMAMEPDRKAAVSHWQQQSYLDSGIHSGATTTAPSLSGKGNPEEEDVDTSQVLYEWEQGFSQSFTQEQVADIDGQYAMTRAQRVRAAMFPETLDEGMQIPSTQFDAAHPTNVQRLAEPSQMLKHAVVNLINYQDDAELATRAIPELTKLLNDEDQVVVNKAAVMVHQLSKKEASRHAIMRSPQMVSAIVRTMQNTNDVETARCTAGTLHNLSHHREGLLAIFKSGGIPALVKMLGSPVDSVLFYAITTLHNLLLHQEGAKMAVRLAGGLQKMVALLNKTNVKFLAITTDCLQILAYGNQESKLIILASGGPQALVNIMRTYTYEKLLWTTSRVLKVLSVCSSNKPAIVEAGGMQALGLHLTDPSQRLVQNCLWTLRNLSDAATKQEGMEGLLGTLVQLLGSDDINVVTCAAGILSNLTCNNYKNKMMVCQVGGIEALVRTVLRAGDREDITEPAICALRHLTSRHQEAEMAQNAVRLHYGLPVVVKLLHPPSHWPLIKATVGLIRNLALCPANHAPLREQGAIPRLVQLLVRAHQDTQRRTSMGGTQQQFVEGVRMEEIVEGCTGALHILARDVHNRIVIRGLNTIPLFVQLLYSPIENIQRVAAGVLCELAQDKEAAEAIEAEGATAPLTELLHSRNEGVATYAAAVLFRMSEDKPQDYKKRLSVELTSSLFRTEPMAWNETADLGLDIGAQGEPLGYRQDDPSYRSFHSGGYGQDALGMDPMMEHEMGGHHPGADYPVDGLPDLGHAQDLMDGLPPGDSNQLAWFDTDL
UniProt O14641: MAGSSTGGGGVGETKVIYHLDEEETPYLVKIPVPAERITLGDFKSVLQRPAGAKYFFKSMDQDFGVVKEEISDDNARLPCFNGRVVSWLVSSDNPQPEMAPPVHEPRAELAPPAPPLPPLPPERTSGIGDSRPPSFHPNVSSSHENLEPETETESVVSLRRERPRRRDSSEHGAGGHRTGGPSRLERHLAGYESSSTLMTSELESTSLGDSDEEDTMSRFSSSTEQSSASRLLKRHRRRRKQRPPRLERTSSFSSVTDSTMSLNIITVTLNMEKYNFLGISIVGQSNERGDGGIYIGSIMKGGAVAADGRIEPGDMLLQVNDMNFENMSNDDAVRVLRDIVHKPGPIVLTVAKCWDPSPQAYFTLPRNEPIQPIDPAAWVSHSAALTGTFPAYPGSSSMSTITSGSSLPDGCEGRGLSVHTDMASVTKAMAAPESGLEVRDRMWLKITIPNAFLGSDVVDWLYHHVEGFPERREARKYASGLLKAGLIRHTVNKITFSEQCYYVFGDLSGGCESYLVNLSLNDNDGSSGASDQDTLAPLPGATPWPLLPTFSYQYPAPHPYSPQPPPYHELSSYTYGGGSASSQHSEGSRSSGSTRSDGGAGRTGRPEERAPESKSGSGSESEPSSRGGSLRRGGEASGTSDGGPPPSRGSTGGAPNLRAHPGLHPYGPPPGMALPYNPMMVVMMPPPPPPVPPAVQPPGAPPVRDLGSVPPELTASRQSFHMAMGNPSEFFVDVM
UniProt O15169: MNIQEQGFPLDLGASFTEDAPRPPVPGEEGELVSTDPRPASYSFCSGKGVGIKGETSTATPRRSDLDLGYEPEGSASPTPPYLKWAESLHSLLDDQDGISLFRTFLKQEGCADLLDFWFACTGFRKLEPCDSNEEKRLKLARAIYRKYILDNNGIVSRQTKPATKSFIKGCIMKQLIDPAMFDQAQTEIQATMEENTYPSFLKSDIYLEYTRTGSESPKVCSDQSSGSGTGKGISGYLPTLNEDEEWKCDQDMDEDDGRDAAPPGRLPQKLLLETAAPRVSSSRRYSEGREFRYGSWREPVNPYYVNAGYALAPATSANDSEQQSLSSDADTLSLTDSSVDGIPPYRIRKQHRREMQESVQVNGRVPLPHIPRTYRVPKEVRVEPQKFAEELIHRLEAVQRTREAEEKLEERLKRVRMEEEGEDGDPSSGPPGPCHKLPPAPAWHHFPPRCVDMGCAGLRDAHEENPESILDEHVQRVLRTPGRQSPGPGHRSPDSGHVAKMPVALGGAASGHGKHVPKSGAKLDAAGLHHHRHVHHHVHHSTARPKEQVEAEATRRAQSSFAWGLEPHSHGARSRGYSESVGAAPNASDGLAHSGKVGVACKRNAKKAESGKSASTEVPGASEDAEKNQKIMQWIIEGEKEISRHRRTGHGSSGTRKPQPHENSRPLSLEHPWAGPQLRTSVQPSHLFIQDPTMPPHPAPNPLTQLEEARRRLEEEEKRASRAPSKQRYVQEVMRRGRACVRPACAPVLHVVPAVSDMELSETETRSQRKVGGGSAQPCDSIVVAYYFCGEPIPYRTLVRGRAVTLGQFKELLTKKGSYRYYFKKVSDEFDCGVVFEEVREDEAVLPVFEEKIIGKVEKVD

Key:
[1] = target: miniTurbo-V5-casein kinase 1γ1 (mT-V5-CK1γ1) (human) (UniProt Q9HCP0); experiment: proximity labelling; HEK293T cells stably expressing mT-V5-CK1γ, 50 mM biotin for 30 min, streptavidin affinity purification overnight, mass spectrometry, biological triplicate, scored with SAINT and CompPASS
[2] = target: miniTurbo-V5-casein kinase 1γ2 (mT-V5-CK1γ2) (human) (UniProt P78368); experiment: as above
[3] = target: miniTurbo-V5-casein kinase 1γ3 (mT-V5-CK1γ3) (human) (UniProt Q9Y6M4); experiment: as above
[4] = target: miniTurbo-V5-casein kinase 1γ1 (mT-V5-CK1γ1) (human) (UniProt Q9HCP0); experiment: proximity labelling; HEK293T cells stably expressing mT-V5-CK1γ, 50 mM biotin (Fig. 1F: biotin and WNT3A CM for 30 min), RIPA lysis, streptavidin affinity pulldown 1 h at 4 °C, Western blot of the biotinylated proteins
[5] = target: miniTurbo-V5-casein kinase 1γ2 (mT-V5-CK1γ2) (human) (UniProt P78368); experiment: as above
[6] = target: miniTurbo-V5-casein kinase 1γ3 (mT-V5-CK1γ3) (human) (UniProt Q9Y6M4); experiment: as above

binding [1] | binding [2] | binding [3] | binding [4] | binding [5] | binding [6] | Substance
binds | binds | binds | – | – | – | phosphoinositide-3-kinase regulatory subunit 3 (PIK3R3) (from UniProt Q92569 1-461)
– | – | – | binds | binds | binds | cadherin EGF LAG seven-pass G-type receptor 2 (CELSR2) (from UniProt Q9HCU4 32-2923)
binds | binds | binds | – | – | – | zinc finger DHHC-type palmitoyltransferase 8 (ZDHHC8) (from UniProt Q9ULC8 1-765) (enzyme)

Second part, the substance before the results:

Substance | binding [1] | binding [2] | binding [3] | binding [4] | binding [5] | binding [6]
β-catenin (CTNNB1) (from UniProt P35222 1-781) | binds | binds | binds | binds | binds | binds
DVL2 (from UniProt O14641 1-736) | – | – | – | binds | binds | binds
AXIN1 (from UniProt O15169 1-862) | – | – | – | binds | binds | binds

No constants are given. Whether binding was seen depends on the method and setting. In cells and extracts the contact can be indirect. These calls come from enrichment with a bait or labelling near it, and not all partners need be listed.
